Measurements as given in patent US20250221991A1, “COMBINATION THERAPY FOR THE TREATMENT OF CANCER METASTASES” (University of Cincinnati, priority 2024, published 2025).
At least one compound was matched to its structure with a doubt left.

Legend:
[1] = test system: intracellular reactive oxygen species; assay: Assessment of reactive oxygen species (DCFH-DA, confocal microscopy); assay type: cell-based; details: B16-F10 and PANC-1 cells in soft agar, 16 h
[2] = test system: B16-F10 cells; assay: Soft agar colony formation, B16-F10; assay type: cell-based; details: dose-dependent manner; colony size after 11 days
[3] = test system: PANC-1 cells; assay: Soft agar colony formation, PANC-1; assay type: cell-based, human; details: dose-dependent manner; colony size after 11 days
Method: The capability of cells to grow under anchorage-independent conditions is a hallmark of transformation and correlates with tumor progression in vivo. The assay was performed in a 60-mm dish with a bottom layer of 2 mL 0.5% agar (Noble Agar, Sigma) in the culture medium that is designated to the cells. The bottom agar was allowed to be solidified in the biosafety cabinet. Cells were suspended in 0.2% agar for PANC-1 cells, MIA PaCa-2 cells, and B16-F10 cells, but in 0.15% agar for MDA-MB-231 cells and 4T1 cells and then plated (1×10^5 cells/2 mL/dish) on top of the bottom layer. 400 μL culture medium with or without the indicated doses of drug treatment was added to cover the top agar layer every other day over 2 weeks for PANC-1, MIA PaCa-2 cells and over 3 weeks for MDA-MB-231 cells, respectively. The colonies in five microscopic fields (top, bottom, left, right and center) of each dish were photographed. […] Each treatment was repeated thrice.

[4] = test system: AsPC1; assay: Deadherent survival (WST-1, poly-HEMA vs plastic), AsPC1; assay type: cell-based, human; details: 0-6 μg/mL, 48 hours
[5] = test system: MDA-MB-231 cells; assay: Deadherent survival (WST-1, poly-HEMA vs plastic), MDA-MB-231; assay type: cell-based
Method: (§1) Cells were seeded at a density of 10^4 cells/well in 96-well plates, either uncoated or in poly(2-hydroxyethyl methacrylate) (poly-HEMA) coated wells (3 mg of poly-HEMA in 50 μL 95% ethanol, let dry overnight, then washed twice with PBS, followed by one wash with medium before initiation of the experiment). Drugs were added in triplicates at the indicated concentrations for an incubation time of 48 h. At the 48-h time point, the indicator WST-1 was added to each well at 10% v/v final concentration. At the 60-, 80-, and 120-minute time points, the absorbance was measured at 450 nm using a MRX-TC Revelation plate reader.

[6] = test system: MIA PaCa-2 cells; assay: Deadherent survival (WST-1, poly-HEMA vs plastic), MIA PaCa-2; assay type: cell-based, human; details: 0-6 μg/mL, 48 hours
Method: as §1

[7] = test system: PANC-1 cells; assay: Deadherent survival (WST-1, poly-HEMA vs plastic), PANC-1; assay type: cell-based, human; details: 0-6 μg/mL, 48 hours
Method: as §1

[8] = test system: SW1116; assay: Deadherent survival (WST-1, poly-HEMA vs plastic), SW1116; assay type: cell-based, human; details: 0-6 μg/mL, 48 hours

In the case of `O=C1C(O)=C([C@H]2CC[C@H](c3ccc(Cl)cc3)CC2)C(=O)c2ccccc21` [Atovaquone, atovaquone], the “intracellular reactive oxygen species (fluorescence of DCFH-DA)” value [1] is reported as “reduction”, the “soft agar colony formation” value [2] is reported as “suppressed” and the “soft agar colony formation” value [3] is reported as “suppressed”.
For `Cc1ccc(Nc2nccc(N(C)c3ccc4c(C)n(C)nc4c3)n2)cc1S(N)(=O)=O` [pazopanib], the “sensitivity of deadherent cells vs adherent cells to the drug” value [4] was “more sensitive”, the “sensitivity of deadherent cells vs adherent cells to the drug” value ([5]; 0-6 μg/mL, 48 hours) was “more sensitive” and the “effect on the same cells in the adherent (plated) state” value ([5]; in the concentration range that significantly inhibits cells on poly-HEMA) was “without compromising”. For the same compound, the “sensitivity of deadherent cells vs adherent cells to the drug” value [6] was “more sensitive”, the “sensitivity of deadherent cells vs adherent cells to the drug” value [7] was “more sensitive” and the “sensitivity of deadherent cells vs adherent cells to the drug” value [8] was “more sensitive”.
